Measured values taken from PMC4256660.
Results are given in words; binding and its absence hold for the method and conditions named. Binding seen in cells or lysates may run through a third protein. Binding calls can cover weak binding; strength is not graded here. Where a sequence is shown, tags or fusion partners need not be part of it.

Chains of the proteins cited; added tags and fusions are not shown. Lines headed by an entry give the natural chain unless they say otherwise; changes in a name come on top.
UniProt P40763: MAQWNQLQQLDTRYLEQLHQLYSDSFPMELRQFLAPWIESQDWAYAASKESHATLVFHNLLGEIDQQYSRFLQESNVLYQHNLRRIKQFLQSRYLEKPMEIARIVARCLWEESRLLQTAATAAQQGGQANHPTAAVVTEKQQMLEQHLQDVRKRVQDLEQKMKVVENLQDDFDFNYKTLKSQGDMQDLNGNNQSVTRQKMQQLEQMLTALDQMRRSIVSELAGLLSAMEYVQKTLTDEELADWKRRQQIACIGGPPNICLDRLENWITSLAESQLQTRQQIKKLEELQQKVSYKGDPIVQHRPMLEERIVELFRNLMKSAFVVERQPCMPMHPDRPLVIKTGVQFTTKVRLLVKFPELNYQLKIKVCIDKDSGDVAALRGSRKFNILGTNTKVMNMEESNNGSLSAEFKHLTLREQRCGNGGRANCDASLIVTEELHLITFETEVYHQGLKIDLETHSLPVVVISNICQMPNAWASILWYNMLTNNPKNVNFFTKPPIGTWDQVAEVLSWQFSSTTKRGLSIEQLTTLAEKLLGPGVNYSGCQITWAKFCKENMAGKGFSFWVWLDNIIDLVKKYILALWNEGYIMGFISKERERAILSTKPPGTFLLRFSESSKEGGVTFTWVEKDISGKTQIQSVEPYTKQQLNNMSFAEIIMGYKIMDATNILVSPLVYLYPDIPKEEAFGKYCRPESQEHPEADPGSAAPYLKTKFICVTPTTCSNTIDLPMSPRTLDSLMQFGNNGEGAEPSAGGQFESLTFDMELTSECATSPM

Target: T1, INPP5F-V5, co-transfected in 293T cells (UniProt Q9Y2H2)
T1 sequence: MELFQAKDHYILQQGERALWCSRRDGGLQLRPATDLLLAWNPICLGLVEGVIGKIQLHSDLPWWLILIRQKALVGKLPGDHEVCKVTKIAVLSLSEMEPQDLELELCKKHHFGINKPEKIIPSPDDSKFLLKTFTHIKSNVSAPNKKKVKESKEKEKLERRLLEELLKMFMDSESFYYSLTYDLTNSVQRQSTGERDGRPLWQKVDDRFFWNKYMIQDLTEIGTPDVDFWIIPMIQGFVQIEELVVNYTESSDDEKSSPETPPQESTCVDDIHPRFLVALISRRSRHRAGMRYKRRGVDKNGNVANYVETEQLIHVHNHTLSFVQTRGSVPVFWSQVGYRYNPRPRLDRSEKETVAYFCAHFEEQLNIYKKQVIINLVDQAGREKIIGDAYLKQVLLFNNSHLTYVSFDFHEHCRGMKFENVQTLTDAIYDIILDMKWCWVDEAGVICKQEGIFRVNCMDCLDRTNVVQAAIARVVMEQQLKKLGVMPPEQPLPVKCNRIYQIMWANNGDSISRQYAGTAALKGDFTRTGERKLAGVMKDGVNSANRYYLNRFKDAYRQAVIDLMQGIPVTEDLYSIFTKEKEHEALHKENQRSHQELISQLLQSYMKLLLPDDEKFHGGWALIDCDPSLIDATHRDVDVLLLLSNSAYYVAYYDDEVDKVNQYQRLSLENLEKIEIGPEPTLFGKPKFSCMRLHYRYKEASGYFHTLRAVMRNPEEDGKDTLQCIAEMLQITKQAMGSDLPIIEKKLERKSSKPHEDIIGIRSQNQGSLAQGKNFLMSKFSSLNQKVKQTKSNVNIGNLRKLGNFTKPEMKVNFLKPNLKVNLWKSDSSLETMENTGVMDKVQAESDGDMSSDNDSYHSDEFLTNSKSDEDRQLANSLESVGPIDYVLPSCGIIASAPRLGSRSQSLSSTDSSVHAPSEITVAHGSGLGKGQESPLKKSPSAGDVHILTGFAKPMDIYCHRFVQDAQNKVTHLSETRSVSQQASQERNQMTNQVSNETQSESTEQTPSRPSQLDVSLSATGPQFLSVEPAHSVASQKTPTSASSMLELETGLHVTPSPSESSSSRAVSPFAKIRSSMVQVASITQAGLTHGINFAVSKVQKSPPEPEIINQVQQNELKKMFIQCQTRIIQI
Experiment: co-IP; 293T cells co-transfected with INPP5F-V5 and GFP-tagged STAT3 constructs; IP with anti-V5, immunoblot with anti-GFP; M2 lysis buffer, Dynabeads Protein G

Substance	binding
N-terminal domain deleted STAT3 (131-End), GFP-tagged (from UniProt P40763) (domain or fragment)	binds
full-length STAT3 (GFP-tagged) of the deletion series (from UniProt P40763)	binds
